Measured values as given in paper PMC6906326.
No constants are given. Whether binding was seen depends on the method and setting. Binding seen in cells or lysates may run through a third protein.

Target: YAP1 (human (endogenous in MKN28 and AGS)), P46937
Experiment: co-IP; endogenous proteins from MKN28 and AGS lysates; protein A/G magnetic beads pre-incubated with anti-YAP1 or anti-snail1 antibody at 4 °C, washed three times with extraction buffer, western blot; also done after sh-CLDN6 knock-down (YAP1-snail1 interaction became weak)
Conditions: remark: other sources report otherwise

B1: zeb1, P37275 1-1124 (protein)
chain: MADGPRCKRRKQANPRRNNVTNYNTVVETNSDSDDEDKLHIVEEESVTDAADCEGVPEDDLPTDQTVLPGRSSEREGNAKNCWEDDRKEGQEILGPEAQADEAGCTVKDDECESDAENEQNHDPNVEEFLQQQDTAVIFPEAPEEDQRQGTPEASGHDENGTPDAFSQLLTCPYCDRGYKRFTSLKEHIKYRHEKNEDNFSCSLCSYTFAYRTQLERHMTSHKSGRDQRHVTQSGCNRKFKCTECGKAFKYKHHLKEHLRIHSGEKPYECPNCKKRFSHSGSYSSHISSKKCISLIPVNGRPRTGLKTSQCSSPSLSASPGSPTRPQIRQKIENKPLQEQLSVNQIKTEPVDYEFKPIVVASGINCSTPLQNGVFTGGGPLQATSSPQGMVQAVVLPTVGLVSPISINLSDIQNVLKVAVDGNVIRQVLENNQANLASKEQETINASPIQQGGHSVISAISLPLVDQDGTTKIIINYSLEQPSQLQVVPQNLKKENPVATNSCKSEKLPEDLTVKSEKDKSFEGGVNDSTCLLCDDCPGDINALPELKHYDLKQPTQPPPLPAAEAEKPESSVSSATGDGNLSPSQPPLKNLLSLLKAYYALNAQPSAEELSKIADSVNLPLDVVKKWFEKMQAGQISVQSSEPSSPEPGKVNIPAKNNDQPQSANANEPQDSTVNLQSPLKMTNSPVLPVGSTTNGSRSSTPSPSPLNLSSSRNTQGYLYTAEGAQEEPQVEPLDLSLPKQQGELLERSTITSVYQNSVYSVQEEPLNLSCAKKEPQKDSCVTDSEPVVNVIPPSANPINIAIPTVTAQLPTIVAIADQNSVPCLRALAANKQTILIPQVAYTYSTTVSPAVQEPPLKVIQPNGNQDERQDTSSEGVSNVEDQNDSDSTPPKKKMRKTENGMYACDLCDKIFQKSSSLLRHKYEHTGKRPHECGICKKAFKHKHHLIEHMRLHSGEKPYQCDKCGKRFSHSGSYSQHMNHRYSYCKREAEERDSTEQEEAGPEILSNEHVGARASPSQGDSDERESLTREEDEDSEKEEEEEDKEMEELQEEKECEKPQGDEEEEEEEEEVEEEEVEEAENEGEEAKTEGLMKDDRAESQASSLGQKVGESSEQVSEEKTNEA
Which binding does the source give for B1 here?
Its binding is “no binding”.
